A value given as a limit tells only on which side of the number the result lay.

Assay [1] relates to MCF-10A (normal breast) cells. The assay is described as follows: MTT cytotoxicity bioassay against normal MCF-10A cells. The format is cell-based. The conditions noted are these: Homo sapiens, 48 h, read-out: IC50 ± SD, MCF-10A.
Assay [2] relates to MCF-7 (breast cancer cells). The assay is described as follows: MTT cytotoxicity bioassay against MCF-7. The format is cell-based, human. The conditions noted are these: read-out: IC50 ± SD, MCF-7, 48 h, mean ± SD, n = 3.

The term IC50 denotes the concentration that gives 50% inhibition. As to `CC[C@H](CO)Nc1nc(NCc2ccccc2)c2ncn(C(C)C)c2n1` [Roscovitine, reference compound], the IC50 was at least 50000 nM in assay [1] and 1910 ± 170 nM in assay [2].
